No constants are given. Whether binding was seen depends on the method and setting.
Columns and labels:
[1] = target: E. coli replicative helicase DnaB, purified (E. coli) (UniProt P0ACB0); test: native gel or EMSA; forked DNA with 3′ and 5′ ssDNA arms; Rep or UvrD at 1, 5, 10 and 25 nM, DnaB at 100 nM hexamers; both purified
[2] = target: E. coli replicative helicase DnaB, purified (E. coli) (UniProt P0ACB0); test: SPR; E. coli and B. stearothermophilus DnaB surface-immobilised (860 and 1705 resonance units); Rep and UvrD flowed at 200, 500, 1000, 2000 and 4000 nM; both purified
[3] = target: C33^Rep peptide (synthetic peptide corresponding to the C-terminal 33 residues of Rep) (E. coli) (UniProt P09980); test: SPR; C33^Rep peptide (260 resonance units) surface-immobilised via an N-terminal biotin tag; DnaB 1 μM monomers and/or DnaC 4 μM monomers, or increasing concentrations of DnaC; both purified

Sequences of proteins named here, by UniProt entry; tags and fusion partners are left off. Residues count along the entry.
UniProt P0ACB0: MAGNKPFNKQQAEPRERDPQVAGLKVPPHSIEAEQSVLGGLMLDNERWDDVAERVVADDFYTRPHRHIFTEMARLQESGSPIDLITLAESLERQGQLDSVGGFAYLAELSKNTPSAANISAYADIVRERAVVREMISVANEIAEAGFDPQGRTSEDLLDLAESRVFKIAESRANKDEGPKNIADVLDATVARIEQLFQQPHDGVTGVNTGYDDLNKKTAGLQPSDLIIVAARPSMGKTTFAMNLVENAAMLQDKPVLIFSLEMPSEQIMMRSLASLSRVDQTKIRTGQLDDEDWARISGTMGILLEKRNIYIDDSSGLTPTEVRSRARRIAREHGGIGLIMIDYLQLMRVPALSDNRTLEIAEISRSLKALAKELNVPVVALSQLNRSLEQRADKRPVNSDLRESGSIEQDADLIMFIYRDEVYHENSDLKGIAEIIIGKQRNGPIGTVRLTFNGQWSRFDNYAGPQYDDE
UniProt P09980, residues 641-673: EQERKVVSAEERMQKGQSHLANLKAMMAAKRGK

| Binder | binding [1] | binding [2] | binding [3] |
| --- | --- | --- | --- |
| UvrD helicase (E. coli) (enzyme, UniProt P03018 1-720) MDVSYLLDSLNDKQREAVAAPRSNLLVLAGAGSGKTRVLVHRIAWLMSVENCSPYSIMAVTFTNKAAAEMRHRIGQLMGTSQGGMWVGTFHGLAHRLLRAHHMDANLPQDFQILDSEDQLRLLKRLIKAMNLDEKQWPPRQAMWYINSQKDEGLRPHHIQSYGNPVEQTWQKVYQAYQEACDRAGLVDFAELLLRAHELWLNKPHILQHYRERFTNILVDEFQDTNNIQYAWIRLLAGDTGKVMIVGDDDQSIYGWRGAQVENIQRFLNDFPGAETIRLEQNYRSTSNILSAANALIENNNGRLGKKLWTDGADGEPISLYCAFNELDEARFVVNRIKTWQDNGGALAECAILYRSNAQSRVLEEALLQASMPYRIYGGMRFFERQEIKDALSYLRLIANRNDDAAFERVVNTPTRGIGDRTLDVVRQTSRDRQLTLWQACRELLQEKALAGRAASALQRFMELIDALAQETADMPLHVQTDRVIKDSGLRTMYEQEKGEKGQTRIENLEELVTATRQFSYNEEDEDLMPLQAFLSHAALEAGEGQADTWQDAVQLMTLHSAKGLEFPQVFIVGMEEGMFPSQMSLDEGGRLEEERRLAYVGVTRAMQKLTLTYAETRRLYGKEVYHRPSRFIGELPEECVEEVRLRATVSRPVSHQRMGTPMVENDSGYKLGQRVRHAKFGEGTIVNMEGSGEHSRLQVAFQGQGIKWLVAAYARLESV | no binding (tested: UvrD up to 25 nM, DnaB 100 nM hexamers) | no binding (tested: 4000 nM) | – |
| DnaC helicase loader (E. coli) (protein, UniProt P0AEF0 1-245) MKNVGDLMQRLQKMMPAHIKPAFKTGEELLAWQKEQGAIRSAALERENRAMKMQRTFNRSGIRPLHQNCSFENYRVECEGQMNALSKARQYVEEFDGNIASFIFSGKPGTGKNHLAAAICNELLLRGKSVLIITVADIMSAMKDTFRNSGTSEEQLLNDLSNVDLLVIDEIGVQTESKYEKVIINQIVDRRSSSKRPTGMLTNSNMEEMTKLLGERVMDRMRLGNSLWVIFNWDSYRSRVTGKEY | – | – | no binding (tested: 4 μM monomers) |
